Measurements taken from PubChem BioAssay AID1489 (National Center for Advancing Translational Sciences (NCATS), 2009).
This list was built around the results that the source calls inconclusive (neither active nor inactive); the mix of calls is not that of the screen. A potency beside an inconclusive call is a rough fit, not a confirmed value. Activity calls are given as the source filed them. The call rests on the fitted dose curve; in most records, active means well fitted antagonist curve with a large enough effect in the main read-out, with a control signal flat; inconclusive means small, poorly fitted or top-dose-only effect; inactive means no such curve, though single readings can be large or run the other way.

Amino acid sequences for entries named in this document (tags omitted). A change or cut given only in a name is not applied to a line headed by its entry.
UniProt Q6W5P4: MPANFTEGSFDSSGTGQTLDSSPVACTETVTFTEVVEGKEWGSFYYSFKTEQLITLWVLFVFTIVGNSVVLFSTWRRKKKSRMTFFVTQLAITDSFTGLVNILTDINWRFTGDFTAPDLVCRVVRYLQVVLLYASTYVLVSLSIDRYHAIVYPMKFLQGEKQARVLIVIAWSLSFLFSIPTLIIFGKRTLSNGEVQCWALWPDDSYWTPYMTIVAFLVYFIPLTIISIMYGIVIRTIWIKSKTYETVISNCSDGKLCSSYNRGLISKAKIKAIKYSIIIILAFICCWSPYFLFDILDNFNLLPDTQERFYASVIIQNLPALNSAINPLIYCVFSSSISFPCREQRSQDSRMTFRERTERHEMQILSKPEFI

Target: Neuropeptide S receptor (Homo sapiens) (UniProt Q6W5P4)
Test: Confirmation Concentration-Response Assay for Antagonists of the Neuropeptide S Receptor: Calcium Signal Transduction
Conditions: CHO-NPSR cells, NPS-induced calcium flux, FDSS; activity change, negative = inhibition: at 19.3 µM (top of the series)
How it was run: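 CHO cells stably expressing human NPSR, loaded with calcium dye; compounds added, then stimulated with NPS (60 nM in stimulation reagent). Fluorescence (Ex 480, Em 520–560 nm) recorded kinetically on FDSS; AC50 from Hill fit.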

| SMILES | Potency | activity change, negative = inhibition |
| --- | --- | --- |
| CCCC(=O)Nc1ncnc2c1ncn2[C@@H]1O[C@@H]2COP(=O)(O)O[C@H]2[C@H]1OC(=O)CCC | inconclusive: 282 nM [antagonist, full curve, poor fit] | – |
| C#CC(=O)N(c1cccc(OC)c1)C(C(=O)NC1CCCC1)c1cccs1 (configuration not stated) | inconclusive: 7940 nM [antagonist, partial curve, poor fit] | – |
| COc1ccc(/C=N/NC(=S)SC)cc1OC | inconclusive: 1 nM [antagonist, full curve, poor fit] | – |
| CCCCc1cc(O)c(CCCC)c(O)c1 | inconclusive: 2510 nM [falling, full curve, poor fit] | – |
| O=C(N/N=C/c1ccc([N+](=O)[O-])o1)c1ccc(O)cc1 | inconclusive: 3550 nM [antagonist, partial curve, poor fit] | – |
| Cc1nn(-c2nc3ccccc3n2Cc2ccccc2)c2c1C(=O)CC(C)(C)C2 | inconclusive: 15800 nM [antagonist, partial curve, poor fit] | – |
| Cc1ccc2oc(-c3cccc(NC(=S)NC(=O)/C=C/c4ccco4)c3)nc2c1 | inconclusive: 14100 nM [antagonist, partial curve, poor fit] | – |
| CC(=O)c1sc(C(C)(C)C)cc1NC(=O)c1ccccc1C(=O)O | inconclusive: 200 nM [antagonist, full curve, poor fit] | – |
| CC1C(c2ccccc2)N(C)C(c2ccccc2)CC1(O)c1ccccc1 (configuration not stated) | inconclusive: 28.2 nM [antagonist, full curve, poor fit] | – |
| O=C(CSc1n[nH]c(-c2cccnc2)n1)Nc1ccnc2ccccc12 | – | inactive: -2.97% |
| O=S1(=O)Nc2c(ccc3cccnc23)-c2ccccc21 | inconclusive: 2240 nM [antagonist, full curve] | – |
| c1ccc(CSC2=NNC(c3ccccn3)S2)cc1 (configuration not stated) | inconclusive: 3550 nM [antagonist, partial curve, poor fit] | – |
| CCn1cc(C(=O)NCC2CCCO2)c(=O)c2cc(S(=O)(=O)N3CCCCCC3)ccc21 (configuration not stated) | – | inactive: 15% |
| CC(=O)c1cc(NC(=O)c2ccccc2)c(=O)oc1/C=C/N(C)C | inconclusive: 11200 nM [antagonist, partial curve, poor fit] | – |
| COc1ccc(NC(=O)/C(Cl)=C(/Cl)S(=O)Cc2ccc(C)cc2)cn1 (configuration not stated) | active: 2240 nM | – |
| CCC(=O)O[C@]1(C(=O)CCl)[C@@H](C)C[C@H]2[C@@H]3CCC4=CC(=O)C=C[C@]4(C)[C@@]3(F)[C@@H](O)C[C@@]21C | inconclusive: 1000 nM [antagonist, full curve, poor fit] | – |

Some of the entries above, reformatted:
SMILES | Potency | activity change, negative = inhibition
CCCCc1cc(O)c(CCCC)c(O)c1 | inconclusive: 2510 nM [falling, full curve, poor fit] | –
Cc1nn(-c2nc3ccccc3n2Cc2ccccc2)c2c1C(=O)CC(C)(C)C2 | inconclusive: 15800 nM [antagonist, partial curve, poor fit] | –
CC(=O)c1sc(C(C)(C)C)cc1NC(=O)c1ccccc1C(=O)O | inconclusive: 200 nM [antagonist, full curve, poor fit] | –
CC1C(c2ccccc2)N(C)C(c2ccccc2)CC1(O)c1ccccc1 (configuration not stated) | inconclusive: 28.2 nM [antagonist, full curve, poor fit] | –
O=S1(=O)Nc2c(ccc3cccnc23)-c2ccccc21 | inconclusive: 2240 nM [antagonist, full curve] | –
c1ccc(CSC2=NNC(c3ccccn3)S2)cc1 (configuration not stated) | inconclusive: 3550 nM [antagonist, partial curve, poor fit] | –
CC(=O)c1cc(NC(=O)c2ccccc2)c(=O)oc1/C=C/N(C)C | inconclusive: 11200 nM [antagonist, partial curve, poor fit] | –
CCC(=O)O[C@]1(C(=O)CCl)[C@@H](C)C[C@H]2[C@@H]3CCC4=CC(=O)C=C[C@]4(C)[C@@]3(F)[C@@H](O)C[C@@]21C | inconclusive: 1000 nM [antagonist, full curve, poor fit] | –

Remaining list, next part.

| SMILES | Potency | activity change, negative = inhibition |
| --- | --- | --- |
| OCCN(CCO)c1nc(N2CCCCC2)c2nc(N(CCO)CCO)nc(N3CCCCC3)c2n1 | inconclusive: 11200 nM [falling, partial curve] | – |
| O=C1Nc2ccc(S(=O)(=O)N3CCCC3C(=O)O)c3cccc1c23 (configuration not stated) | – | inactive: -13.6% |
| CN(C)C(=O)Oc1cccc([N+](C)(C)C)c1 | – | inactive: 20.5% |
| Cc1cc(Br)c2nc3c(c(C(=O)O)c2c1)CCCCC3 | inconclusive: 891 nM [antagonist, partial curve, poor fit] | – |
| COc1ccc2nc(NC(=S)N(C)C)sc2c1 | inconclusive: 3.98 nM [antagonist, full curve, poor fit] | – |
| COCCCn1c(SCc2cc(=O)[nH]c3ccccc23)nnc1-c1ccco1 | – | inactive: 15.8% |
| COc1ccccc1OCC(O)CN1CCN(CC(=O)Nc2c(C)cccc2C)CC1 (configuration not stated) | inconclusive: 25100 nM [falling, single point] | – |
| Cc1ccc(S(=O)(=O)Nc2cccc3ncccc23)s1 | active: 3160 nM | – |
| Cc1cc(N/N=C/c2ccccc2[N+](=O)[O-])nc(-n2nc(C)cc2C)n1 | inconclusive: 2240 nM [antagonist, full curve] | – |
| CCSc1nc2c(c(=O)n1Cc1ccccc1)SC(C)C2 (configuration not stated) | – | inactive: -2.84% |
| CCCCOc1ccc(OCCCN2CCOCC2)cc1 | – | inactive: 2.69% |
| CN(C)C(=S)N=Nc1[nH]c2ccccc2c1O | – | inactive: 15.4% |
| CC1(O)c2ccccc2C(=O)N1CCc1ccccc1F (configuration not stated) | – | inconclusive: -14.9% |
| CN(C)c1ccc(N=Cc2ccco2)cc1 | – | inactive: -23.3% |
| COc1cc(/C=C2\COC/C(=C\c3cc(OC)c(OC)c(OC)c3)C2=O)cc(OC)c1OC | inconclusive: 7940 nM [antagonist, partial curve, poor fit] | – |
| Oc1ccc(N=Nc2nccs2)c(O)c1 | – | inactive: -0.946% |
